Test results reported in the supplement of paper PMC11006884.
This is a selection; strong and weak results do not stand in their true shares.

Amino acid sequences for entries named in this document (tags omitted). A change or cut given only in a name is not applied to a line headed by its entry.
UniProt O95881: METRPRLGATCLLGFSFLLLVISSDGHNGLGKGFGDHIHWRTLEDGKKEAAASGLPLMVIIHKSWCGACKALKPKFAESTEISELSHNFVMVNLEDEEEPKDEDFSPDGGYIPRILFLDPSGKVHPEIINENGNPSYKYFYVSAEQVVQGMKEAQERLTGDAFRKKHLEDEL
UniProt O95757: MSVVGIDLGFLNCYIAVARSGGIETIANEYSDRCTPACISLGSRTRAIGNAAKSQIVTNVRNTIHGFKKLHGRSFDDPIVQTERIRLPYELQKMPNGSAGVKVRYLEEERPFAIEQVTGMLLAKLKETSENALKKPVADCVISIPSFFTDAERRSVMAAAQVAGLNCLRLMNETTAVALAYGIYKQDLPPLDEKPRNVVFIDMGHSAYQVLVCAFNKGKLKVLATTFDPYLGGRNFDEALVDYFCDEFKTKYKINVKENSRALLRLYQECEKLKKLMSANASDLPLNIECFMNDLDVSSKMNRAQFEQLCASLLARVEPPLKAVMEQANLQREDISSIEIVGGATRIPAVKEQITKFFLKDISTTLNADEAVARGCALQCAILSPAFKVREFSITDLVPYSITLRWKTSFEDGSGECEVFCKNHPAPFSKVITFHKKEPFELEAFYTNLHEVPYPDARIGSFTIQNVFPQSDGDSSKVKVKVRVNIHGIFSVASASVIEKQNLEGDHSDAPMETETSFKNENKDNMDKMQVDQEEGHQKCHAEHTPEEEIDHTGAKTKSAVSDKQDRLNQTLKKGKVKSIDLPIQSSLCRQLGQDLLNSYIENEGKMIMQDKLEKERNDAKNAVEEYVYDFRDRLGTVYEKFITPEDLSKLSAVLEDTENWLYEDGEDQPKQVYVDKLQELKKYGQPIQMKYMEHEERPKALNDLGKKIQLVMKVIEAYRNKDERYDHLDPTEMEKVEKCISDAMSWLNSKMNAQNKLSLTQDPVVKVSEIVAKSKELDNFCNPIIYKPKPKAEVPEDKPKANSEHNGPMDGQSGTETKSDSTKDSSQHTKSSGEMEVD
UniProt O95218: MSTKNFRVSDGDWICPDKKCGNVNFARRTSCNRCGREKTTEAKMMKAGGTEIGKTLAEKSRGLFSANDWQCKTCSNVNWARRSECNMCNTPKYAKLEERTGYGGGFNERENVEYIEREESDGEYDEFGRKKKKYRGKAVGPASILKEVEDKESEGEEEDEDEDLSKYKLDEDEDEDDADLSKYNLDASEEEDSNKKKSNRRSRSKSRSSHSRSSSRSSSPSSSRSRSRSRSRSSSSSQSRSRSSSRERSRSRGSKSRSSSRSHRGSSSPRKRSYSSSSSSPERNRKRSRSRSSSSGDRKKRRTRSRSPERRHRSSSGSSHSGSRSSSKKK
UniProt O95391: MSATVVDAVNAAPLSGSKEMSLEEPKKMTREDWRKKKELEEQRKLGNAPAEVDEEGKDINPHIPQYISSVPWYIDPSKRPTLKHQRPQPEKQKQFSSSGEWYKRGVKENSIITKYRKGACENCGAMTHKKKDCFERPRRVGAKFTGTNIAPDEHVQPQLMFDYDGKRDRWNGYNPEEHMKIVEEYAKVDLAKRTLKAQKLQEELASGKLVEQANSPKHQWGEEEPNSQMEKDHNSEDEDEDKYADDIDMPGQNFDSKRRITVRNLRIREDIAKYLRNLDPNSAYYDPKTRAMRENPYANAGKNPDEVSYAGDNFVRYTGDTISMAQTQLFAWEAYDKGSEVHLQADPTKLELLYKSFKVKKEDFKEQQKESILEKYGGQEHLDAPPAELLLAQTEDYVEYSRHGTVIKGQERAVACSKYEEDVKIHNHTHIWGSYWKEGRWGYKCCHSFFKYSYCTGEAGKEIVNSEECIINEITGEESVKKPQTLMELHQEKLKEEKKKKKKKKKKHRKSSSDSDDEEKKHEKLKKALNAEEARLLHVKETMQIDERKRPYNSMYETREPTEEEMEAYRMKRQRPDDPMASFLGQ
UniProt O95613: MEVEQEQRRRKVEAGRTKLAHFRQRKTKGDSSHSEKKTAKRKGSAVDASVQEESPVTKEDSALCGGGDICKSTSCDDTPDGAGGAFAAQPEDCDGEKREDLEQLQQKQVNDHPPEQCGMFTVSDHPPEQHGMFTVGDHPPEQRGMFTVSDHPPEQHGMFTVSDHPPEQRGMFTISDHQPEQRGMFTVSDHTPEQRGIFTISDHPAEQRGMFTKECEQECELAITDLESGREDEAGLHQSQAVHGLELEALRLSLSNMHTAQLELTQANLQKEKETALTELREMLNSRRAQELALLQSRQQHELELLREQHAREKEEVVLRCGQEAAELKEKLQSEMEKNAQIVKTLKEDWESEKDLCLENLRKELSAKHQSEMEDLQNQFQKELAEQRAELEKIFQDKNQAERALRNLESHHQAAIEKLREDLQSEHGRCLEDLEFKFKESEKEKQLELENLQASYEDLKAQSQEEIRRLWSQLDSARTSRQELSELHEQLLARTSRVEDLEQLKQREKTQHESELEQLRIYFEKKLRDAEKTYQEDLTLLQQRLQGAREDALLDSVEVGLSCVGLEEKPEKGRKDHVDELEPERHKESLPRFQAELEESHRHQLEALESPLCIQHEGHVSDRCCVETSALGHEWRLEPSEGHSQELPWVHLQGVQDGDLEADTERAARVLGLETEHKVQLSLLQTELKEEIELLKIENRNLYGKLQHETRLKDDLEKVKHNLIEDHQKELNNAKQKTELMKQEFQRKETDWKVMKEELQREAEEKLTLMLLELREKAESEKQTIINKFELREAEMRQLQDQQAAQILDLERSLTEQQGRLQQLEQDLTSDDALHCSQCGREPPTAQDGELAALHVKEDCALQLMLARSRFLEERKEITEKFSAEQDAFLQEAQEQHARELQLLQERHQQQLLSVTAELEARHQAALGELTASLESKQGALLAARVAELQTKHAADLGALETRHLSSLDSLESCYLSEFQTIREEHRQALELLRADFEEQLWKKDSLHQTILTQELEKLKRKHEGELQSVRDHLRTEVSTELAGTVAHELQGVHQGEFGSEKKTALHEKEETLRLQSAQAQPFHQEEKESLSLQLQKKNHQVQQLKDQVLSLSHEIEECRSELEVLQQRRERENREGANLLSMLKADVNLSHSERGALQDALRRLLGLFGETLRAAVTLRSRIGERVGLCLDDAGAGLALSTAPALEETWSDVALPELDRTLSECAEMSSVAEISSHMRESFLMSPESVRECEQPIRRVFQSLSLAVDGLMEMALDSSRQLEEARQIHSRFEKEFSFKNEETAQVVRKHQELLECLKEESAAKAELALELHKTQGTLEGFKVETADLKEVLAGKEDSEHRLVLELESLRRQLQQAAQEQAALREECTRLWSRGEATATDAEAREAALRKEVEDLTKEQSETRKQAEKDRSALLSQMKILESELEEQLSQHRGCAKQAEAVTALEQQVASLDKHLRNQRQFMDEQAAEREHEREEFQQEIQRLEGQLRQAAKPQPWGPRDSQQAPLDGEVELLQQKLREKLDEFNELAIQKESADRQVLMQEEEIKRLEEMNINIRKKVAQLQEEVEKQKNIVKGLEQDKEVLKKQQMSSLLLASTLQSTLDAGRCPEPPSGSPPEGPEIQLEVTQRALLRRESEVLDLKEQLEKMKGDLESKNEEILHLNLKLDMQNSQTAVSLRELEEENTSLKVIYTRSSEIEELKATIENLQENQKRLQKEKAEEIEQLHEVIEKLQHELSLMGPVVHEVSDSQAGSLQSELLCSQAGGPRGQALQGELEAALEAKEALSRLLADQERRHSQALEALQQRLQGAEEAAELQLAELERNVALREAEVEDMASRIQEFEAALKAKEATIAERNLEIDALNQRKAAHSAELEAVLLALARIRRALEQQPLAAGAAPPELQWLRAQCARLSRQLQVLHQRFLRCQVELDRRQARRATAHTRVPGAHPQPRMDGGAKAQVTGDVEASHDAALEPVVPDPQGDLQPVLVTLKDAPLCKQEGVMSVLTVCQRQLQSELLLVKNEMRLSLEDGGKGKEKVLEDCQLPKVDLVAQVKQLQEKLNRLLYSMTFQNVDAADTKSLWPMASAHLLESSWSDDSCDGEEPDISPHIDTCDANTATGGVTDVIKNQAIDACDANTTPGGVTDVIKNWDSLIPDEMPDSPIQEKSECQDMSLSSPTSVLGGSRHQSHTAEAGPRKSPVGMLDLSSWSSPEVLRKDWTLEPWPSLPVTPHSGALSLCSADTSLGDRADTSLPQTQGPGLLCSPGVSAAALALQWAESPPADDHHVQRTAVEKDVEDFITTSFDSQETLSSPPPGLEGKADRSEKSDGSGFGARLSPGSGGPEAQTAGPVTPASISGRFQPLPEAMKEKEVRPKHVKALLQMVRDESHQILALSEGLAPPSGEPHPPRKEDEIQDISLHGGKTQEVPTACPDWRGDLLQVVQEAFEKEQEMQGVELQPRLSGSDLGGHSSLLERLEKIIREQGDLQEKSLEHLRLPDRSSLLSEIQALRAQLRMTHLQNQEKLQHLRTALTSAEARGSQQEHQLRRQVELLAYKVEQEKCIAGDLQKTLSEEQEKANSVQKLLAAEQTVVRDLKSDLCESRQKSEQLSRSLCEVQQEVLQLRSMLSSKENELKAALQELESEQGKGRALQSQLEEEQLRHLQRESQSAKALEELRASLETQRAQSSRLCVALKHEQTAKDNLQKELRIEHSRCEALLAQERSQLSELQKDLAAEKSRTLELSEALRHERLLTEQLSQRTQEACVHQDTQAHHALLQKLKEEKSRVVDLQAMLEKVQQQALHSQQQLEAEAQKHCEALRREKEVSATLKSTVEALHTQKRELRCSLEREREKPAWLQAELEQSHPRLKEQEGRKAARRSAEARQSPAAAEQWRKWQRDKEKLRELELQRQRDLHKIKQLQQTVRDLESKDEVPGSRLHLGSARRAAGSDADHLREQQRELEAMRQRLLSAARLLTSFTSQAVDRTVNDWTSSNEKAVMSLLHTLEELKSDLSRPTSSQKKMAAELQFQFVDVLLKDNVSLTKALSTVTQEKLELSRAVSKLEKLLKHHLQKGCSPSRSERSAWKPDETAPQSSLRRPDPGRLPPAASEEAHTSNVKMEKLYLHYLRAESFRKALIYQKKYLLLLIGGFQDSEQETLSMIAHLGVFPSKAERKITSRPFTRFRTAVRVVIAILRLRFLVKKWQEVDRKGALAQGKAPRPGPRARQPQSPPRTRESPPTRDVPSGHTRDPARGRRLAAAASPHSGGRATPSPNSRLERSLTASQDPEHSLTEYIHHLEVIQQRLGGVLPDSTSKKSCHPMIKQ
UniProt P07384: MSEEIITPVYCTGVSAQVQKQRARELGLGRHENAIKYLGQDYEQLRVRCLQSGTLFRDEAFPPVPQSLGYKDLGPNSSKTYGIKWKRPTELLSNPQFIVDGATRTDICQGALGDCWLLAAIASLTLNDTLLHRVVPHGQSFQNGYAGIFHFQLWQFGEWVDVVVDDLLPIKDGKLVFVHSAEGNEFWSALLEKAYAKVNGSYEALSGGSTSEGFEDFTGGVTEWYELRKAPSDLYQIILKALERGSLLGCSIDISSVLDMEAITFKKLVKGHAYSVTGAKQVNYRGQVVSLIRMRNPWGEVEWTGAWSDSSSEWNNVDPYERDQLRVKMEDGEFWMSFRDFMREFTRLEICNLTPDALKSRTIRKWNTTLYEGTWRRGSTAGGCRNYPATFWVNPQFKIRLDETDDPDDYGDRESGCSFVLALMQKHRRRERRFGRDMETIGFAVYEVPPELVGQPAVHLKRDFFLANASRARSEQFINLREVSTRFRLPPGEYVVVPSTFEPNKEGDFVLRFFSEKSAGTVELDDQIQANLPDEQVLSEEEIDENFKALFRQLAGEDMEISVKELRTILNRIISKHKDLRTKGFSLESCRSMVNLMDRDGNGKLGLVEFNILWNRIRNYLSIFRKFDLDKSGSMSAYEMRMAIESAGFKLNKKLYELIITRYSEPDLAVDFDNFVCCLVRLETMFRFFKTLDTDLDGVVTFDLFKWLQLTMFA
UniProt O95758: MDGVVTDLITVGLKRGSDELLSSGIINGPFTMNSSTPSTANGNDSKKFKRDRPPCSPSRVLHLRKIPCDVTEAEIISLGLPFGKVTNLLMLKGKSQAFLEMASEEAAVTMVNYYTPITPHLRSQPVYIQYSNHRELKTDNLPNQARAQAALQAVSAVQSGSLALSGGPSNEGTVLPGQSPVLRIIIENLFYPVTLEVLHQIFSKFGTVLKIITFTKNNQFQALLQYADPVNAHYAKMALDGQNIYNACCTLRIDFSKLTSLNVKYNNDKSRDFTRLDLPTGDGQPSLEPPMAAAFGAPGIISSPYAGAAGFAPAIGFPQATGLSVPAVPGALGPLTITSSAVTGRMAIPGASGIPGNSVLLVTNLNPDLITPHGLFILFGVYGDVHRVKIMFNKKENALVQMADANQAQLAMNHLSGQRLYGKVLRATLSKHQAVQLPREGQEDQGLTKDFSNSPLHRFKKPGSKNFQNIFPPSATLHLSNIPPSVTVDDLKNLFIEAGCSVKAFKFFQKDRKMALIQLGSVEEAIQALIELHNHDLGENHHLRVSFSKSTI

compound: COC(=O)C#Cc1ccccc1 [methyl 3-phenylpropiolate]; assay: log2 ratio of iodoacetamide-alkyne labeling of the cysteine site, DMSO over compound (competition); higher = stronger covalent engagement of the cysteine by the compound, active = 1 or more; details: 500 µM; treatment time 1 h; system: HEK293T cell lysate
Method in brief: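 HEK293T lysate at 2 mg/mL was treated with vehicle or electrophile (500 µM) for 1 h at ambient temperature, then labelled with iodoacetamide alkyne (1 h), clicked to sCIP-TMT reagents, pooled, digested with trypsin overnight at 37 °C, enriched on streptavidin and eluted with acid. Peptides were analysed by Orbitrap Eclipse LC-MS/MS with FAIMS and quantified in FragPipe, using duplicate channels and three replicates, with cysteines quantified in only one replicate excluded. The log2 competition ratio for each cysteine is the mean control-channel reporter intensity divided by the mean compound-channel reporter intensity.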

log2 ratio of iodoacetamide-alkyne labeling, inactive:
SSB C18 (UniProt P05455) -0.139
TXNDC12 C66 (UniProt O95881) 0.593
ATP1A1 C211 (UniProt P05023) 0.147
HSPA4L C589 (UniProt O95757) 0.0295
SVIL C26 (UniProt O95425) 0.503
SLC25A5 C129 (UniProt P05141) 0.212
KRT1 C49 (UniProt P04264) -0.0854
KIF4A C1171 (UniProt O95239) 0.491
PRPF6 C550 (UniProt O94906) 0.0878
ZRANB2 C85 (UniProt O95218) 0.263
UniProt O95071_C739 0.0375
PPP1R3D C26 (UniProt O95685) 0.305
GPI C404 (UniProt P06744) 0.296
KIF20A C43 (UniProt O95235) 0.125
SLU7 C469 (UniProt O95391) 0.505
PCNT C974 (UniProt O95613) -0.0788
NPM1 C21 (UniProt P06748) 0.178
EPRS C381 (UniProt P07814) 0.268
SMC2 C1174 (UniProt O95347) 0.555
ALDOA C202 (UniProt P04075) -0.0261
CAPN1 C115 (UniProt P07384) 0.0571
UniProt P04439_C363 0.336
GSR C102 (UniProt P00390) 0.154
ZRANB2 C74 (UniProt O95218) 0.267
SLC25A5 C257 (UniProt P05141) 0.201
NPM1 C275 (UniProt P06748) -0.0338
PRKD3 C29 (UniProt O94806) 0.121
PFN1 C128 (UniProt P07737) -0.0166
CTSD C117 (UniProt P07339) 0.747
UniProt O95104_C506 0.288
ZRANB2 C71 (UniProt O95218) 0.139
UniProt O95758_C68 0.0841
HERC2 C221 (UniProt O95714) 0.123
UniProt P07437_C127 0.228
SBF1 C896 (UniProt O95248) 0.141
ETHE1 C34 (UniProt O95571) -0.0541
PSMG1 C14 (UniProt O95456) 0.373

Quoted at random: 2 entries already listed, in no set order.
log2 ratio of iodoacetamide-alkyne labeling, inactive:
KIF20A C43 (UniProt O95235) 0.125
KRT1 C49 (UniProt P04264) -0.0854
